The values that follow come from article PMC1914067.

Amino acid sequences for entries named in this document (tags omitted). Residues count along the entry.
UniProt P05556: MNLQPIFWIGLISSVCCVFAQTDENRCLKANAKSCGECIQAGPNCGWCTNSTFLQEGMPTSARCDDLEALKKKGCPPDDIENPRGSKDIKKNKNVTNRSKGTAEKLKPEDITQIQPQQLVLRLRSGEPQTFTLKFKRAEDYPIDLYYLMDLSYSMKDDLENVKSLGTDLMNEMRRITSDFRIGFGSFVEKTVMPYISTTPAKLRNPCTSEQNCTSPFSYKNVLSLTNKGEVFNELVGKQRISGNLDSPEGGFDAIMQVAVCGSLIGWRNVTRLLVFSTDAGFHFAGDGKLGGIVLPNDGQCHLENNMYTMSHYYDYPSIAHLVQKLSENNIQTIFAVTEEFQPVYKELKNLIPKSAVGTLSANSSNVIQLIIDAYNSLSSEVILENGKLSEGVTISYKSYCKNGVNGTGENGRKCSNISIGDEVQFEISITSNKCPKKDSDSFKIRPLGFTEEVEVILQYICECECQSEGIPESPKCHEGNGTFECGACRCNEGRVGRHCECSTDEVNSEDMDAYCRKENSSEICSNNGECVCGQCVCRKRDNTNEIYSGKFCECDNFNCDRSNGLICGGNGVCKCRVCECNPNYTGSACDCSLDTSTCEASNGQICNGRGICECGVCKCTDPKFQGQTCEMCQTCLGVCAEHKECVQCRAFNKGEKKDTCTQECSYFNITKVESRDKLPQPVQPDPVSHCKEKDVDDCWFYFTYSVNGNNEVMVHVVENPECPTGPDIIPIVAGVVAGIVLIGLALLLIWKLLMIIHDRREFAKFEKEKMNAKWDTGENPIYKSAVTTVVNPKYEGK
UniProt P31697, residues 37-241: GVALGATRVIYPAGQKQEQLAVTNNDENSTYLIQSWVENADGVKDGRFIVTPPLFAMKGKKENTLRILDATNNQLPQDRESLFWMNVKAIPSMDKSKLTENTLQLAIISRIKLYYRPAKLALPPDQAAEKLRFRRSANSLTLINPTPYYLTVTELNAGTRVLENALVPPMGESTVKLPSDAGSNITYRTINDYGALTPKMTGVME

Assay [1] concerns the target V5His-tagged human β1 integrin (β1A isoform) (human) (UniProt P05556). Description: far-Western, overlay or dot blot; β1 or α3 integrin immunoprecipitated from transfected 5637 cells, left untreated or treated with EndoHf or PNGase F, resolved by SDS-PAGE and transferred to PVDF; overlaid with FimC_(6XHisFLAG)–FimH, FimC_(6XHisFLAG)–FimH plus 2.5% D-mannose, or FimC_(6XHisFLAG) alone; detected with anti-FLAG antibody; both purified.

The target in assay [2] is T1, human α3 integrin (untagged) (human) (UniProt P26006).
T1 sequence (chain, N-linked oligosaccharides (untreated)): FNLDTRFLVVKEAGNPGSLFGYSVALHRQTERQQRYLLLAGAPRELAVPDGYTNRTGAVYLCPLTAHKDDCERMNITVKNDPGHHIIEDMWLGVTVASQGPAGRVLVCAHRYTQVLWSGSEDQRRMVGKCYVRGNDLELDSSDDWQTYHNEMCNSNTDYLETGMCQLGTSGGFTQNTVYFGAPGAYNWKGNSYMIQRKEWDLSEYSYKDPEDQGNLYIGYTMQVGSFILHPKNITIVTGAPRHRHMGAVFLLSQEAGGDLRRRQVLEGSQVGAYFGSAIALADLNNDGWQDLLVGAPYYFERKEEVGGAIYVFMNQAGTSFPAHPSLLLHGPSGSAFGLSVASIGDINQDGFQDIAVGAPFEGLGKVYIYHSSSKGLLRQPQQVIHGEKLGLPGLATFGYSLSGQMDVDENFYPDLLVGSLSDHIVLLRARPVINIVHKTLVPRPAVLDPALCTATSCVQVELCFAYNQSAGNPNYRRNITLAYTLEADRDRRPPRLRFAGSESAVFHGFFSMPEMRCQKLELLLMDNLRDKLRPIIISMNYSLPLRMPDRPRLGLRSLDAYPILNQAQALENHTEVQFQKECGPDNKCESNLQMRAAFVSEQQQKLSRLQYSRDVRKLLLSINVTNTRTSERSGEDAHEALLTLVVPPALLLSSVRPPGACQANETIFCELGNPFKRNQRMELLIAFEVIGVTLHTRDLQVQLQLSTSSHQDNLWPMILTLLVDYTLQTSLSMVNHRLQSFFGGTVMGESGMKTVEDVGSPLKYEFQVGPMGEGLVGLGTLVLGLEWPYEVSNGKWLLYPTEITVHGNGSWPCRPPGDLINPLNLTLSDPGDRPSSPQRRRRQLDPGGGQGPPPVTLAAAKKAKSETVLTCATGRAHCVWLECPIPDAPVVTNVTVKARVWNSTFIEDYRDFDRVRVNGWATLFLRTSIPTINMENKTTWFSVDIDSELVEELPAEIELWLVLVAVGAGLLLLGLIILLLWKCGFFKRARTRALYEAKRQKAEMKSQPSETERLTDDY
Described as above.

Results are given in words; binding and its absence hold for the method and conditions named. For some assays here: Tags and fused reporters may be left off the sequences shown.

“FimC_(6XHisFLAG) (from UniProt P31697 37-241)”: the binding result in assay [1] and in assay [2] was “no binding” each time.
